Data reported in CN113336847A.
Results are given in words; binding and its absence hold for the method and conditions named. Some binding calls cover weakened binding; strength is not graded here.

The chains behind the UniProt entries cited, without tags or fusion partners. Residues count along the entry.
UniProt Q15116, residues 25-288: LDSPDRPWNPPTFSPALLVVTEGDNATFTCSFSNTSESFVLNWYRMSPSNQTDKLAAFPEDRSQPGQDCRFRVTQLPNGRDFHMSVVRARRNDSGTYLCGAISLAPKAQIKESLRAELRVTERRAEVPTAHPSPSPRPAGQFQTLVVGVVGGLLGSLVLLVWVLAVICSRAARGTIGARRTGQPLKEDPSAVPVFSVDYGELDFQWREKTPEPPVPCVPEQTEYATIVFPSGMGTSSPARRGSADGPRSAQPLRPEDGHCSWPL

Molecular target: PD-1 expressed on CHO cells (CHO-PD-1) (human) (UniProt Q15116)
Assay: flow cytometry, 293T transfection supernatant on CHO-PD-1 cells, goat anti-mouse IgG Fc-FITC

B1: PD1-05-4D5-1A9重组抗体 (secreted into 293T supernatant) (antibody, V domains shown)
VH: EVNLVESGGGLVKPGGSLKLSCAASGFTFSSYGMSWVRQTPEKRLEWVATISGGGSNIYYPDSVKGRFTISRDNAQNNLYLQMSSLRSEDTAFYFCARQRDVDWFAYWGQGTLVTVSA
VL: DILLTQSPATLSVTPGDSVSLSCRASQSISNNLHWYQQKSHESPRLLIKYASQSISGIPSRFSGSGSGTDFTLSINTVETEDFGMYFCQQTNSWPLTFGAGTKLELK
In the case of B1, the binding is reported as “binds”.
